Results as given in paper doi:10.1101/2023.02.03.526950.
Results are given in words; binding and its absence hold for the method and conditions named. Binding seen in cells or lysates may run through a third protein. Binding can be weak; no strength is given.

Assays:
[1] = target: C-terminal region of HIC5; assay: co-IP
[2] = target: LIM4 domain located within the C terminus of PXN (human); assay: co-IP

B1: ULK2, expressed in HEK293T cells (enzyme, UniProt Q8IYT8 1-1036)
chain: MEVVGDFEYSKRDLVGHGAFAVVFRGRHRQKTDWEVAIKSINKKNLSKSQILLGKEIKILKELQHENIVALYDVQELPNSVFLVMEYCNGGDLADYLQAKGTLSEDTIRVFLHQIAAAMRILHSKGIIHRDLKPQNILLSYANRRKSSVSGIRIKIADFGFARYLHSNMMAATLCGSPMYMAPEVIMSQHYDAKADLWSIGTVIYQCLVGKPPFQANSPQDLRMFYEKNRSLMPSIPRETSPYLANLLLGLLQRNQKDRMDFEAFFSHPFLEQGPVKKSCPVPVPMYSGSVSGSSCGSSPSCRFASPPSLPDMQHIQEENLSSPPLGPPNYLQVSKDSASTSSKNSSCDTDDFVLVPHNISSDHSCDMPVGTAGRRASNEFLVCGGQCQPTVSPHSETAPIPVPTQIRNYQRIEQNLTSTASSGTNVHGSPRSAVVRRSNTSPMGFLRPGSCSPVPADTAQTVGRRLSTGSSRPYSPSPLVGTIPEQFSQCCCGHPQGHDSRSRNSSGSPVPQAQSPQSLLSGARLQSAPTLTDIYQNKQKLRKQHSDPVCPSHTGAGYSYSPQPSRPGSLGTSPTKHLGSSPRSSDWFFKTPLPTIIGSPTKTTAPFKIPKTQASSNLLALVTRHGPAEEQSKDGNEPRECAHCLLVQGSERQRAEQQSKAVFGRSVSTGKLSDQQGKTPICRHQGSTDSLNTERPMDIAPAGACGGVLAPPAGTAASSKAVLFTVGSPPHSAAAPTCTHMFLRTRTTSVGPSNSGGSLCAMSGRVCVGSPPGPGFGSSPPGAEAAPSLRYVPYGASPPSLEGLITFEAPELPEETLMEREHTDTLRHLNVMLMFTECVLDLTAMRGGNPELCTSAVSLYQIQESVVVDQISQLSKDWGRVEQLVLYMKAAQLLAASLHLAKAQIKSGKLSPSTAVKQVVKNLNERYKFCITMCKKLTEKLNRFFSDKQRFIDEINSVTAEKLIYNCAVEMVQSAALDEMFQQTEDIVYRYHKAALLLEGLSRILQDPADIENVHKYKCSIERRLSALCHSTATV
Q: How did the binding [1] turn out when B1 was run?
A: binds

Q: What about the binding [2] of the same binder?
A: binds
